According to paper doi:10.1101/2021.12.29.474426:

What was measured:
Experiment in all cases: pull-down
[1] = molecular target: GST-END (wild type EBNA2 N-terminal dimerization domain fused to GST) (Epstein-Barr virus)
[2] = molecular target: GST-END-H15A (END domain H15A missense mutant fused to GST) (Epstein-Barr virus)
[3] = molecular target: GST-ENDΔα1 (END domain α1-helix deletion mutant fused to GST) (Epstein-Barr virus)

B1: early B cell factor (EBF) 1 (protein, UniProt Q9UH73 1-591)
chain: MFGIQESIQRSGSSMKEEPLGSGMNAVRTWMQGAGVLDANTAAQSGVGLARAHFEKQPPSNLRKSNFFHFVLALYDRQGQPVEIERTAFVGFVEKEKEANSEKTNNGIHYRLQLLYSNGIRTEQDFYVRLIDSMTKQAIVYEGQDKNPEMCRVLLTHEIMCSRCCDKKSCGNRNETPSDPVIIDRFFLKFFLKCNQNCLKNAGNPRDMRRFQVVVSTTVNVDGHVLAVSDNMFVHNNSKHGRRARRLDPSEGTPSYLEHATPCIKAISPSEGWTTGGATVIIIGDNFFDGLQVIFGTMLVWSELITPHAIRVQTPPRHIPGVVEVTLSYKSKQFCKGTPGRFIYTALNEPTIDYGFQRLQKVIPRHPGDPERLPKEVILKRAADLVEALYGMPHNNQEIILKRAADIAEALYSVPRNHNQLPALANTSVHAGMMGVNSFSGQLAVNVSEASQATNQGFTRNSSSVSPHGYVPSTTPQQTNYNSVTTSMNGYGSAAMSNLGGSPTFLNGSAANSPYAIVPSSPTMASSTSLPSNCSSSSGIFSFSPANMVSAVKQKSAFAPVVRPQTSPPPTCTSTNGNSLQAISGMIVPPM
binding [1]: binds
binding [2]: binds
binding [3]: no binding

Results are given in words; binding and its absence hold for the method and conditions named. In cells and extracts the contact can be indirect. For part of these data: Binding can be weak; no strength is given.
